Some of the results follow.
Columns and labels:
Test in all cases: log2 fold change, soluble protein after heating vs DMSO (PISA); higher = thermal stabilisation; K562 lysate, 10 uM; active = over 0.2 and 3.5 SD of the protein, either way, in both replicates (recomputed)
nilotinib = compound: Cc1cn(-c2cc(NC(=O)c3ccc(C)c(Nc4nccc(-c5cccnc5)n4)c3)cc(C(F)(F)F)c2)cn1 [nilotinib]
Method in brief: (§1)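 Following dounce homogenisation of K562 pellets in PBS pH 7.4 with 1 mM MgCl2, crude extract at 1 mg/mL protein was incubated for 30 min with 10 μM compound. Aliquots were then heated for 3 min over 48°C-58°C and pooled, NP-40 was added to 0.5% at 4°C, and soluble protein was recovered as the supernatant at 21,000xg for 90 min. Channel-sum-equalised TMTpro 16plex LC-MS/MS quantified this protein. Each value, from duplicates, is a log-two fold change in thermal stability relative to solvent controls.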

By UniProt entry, the sequences of proteins in these tests, tags left out. Where a name states a change or a piece, a line headed by the entry shows the natural chain unless it says otherwise.
UniProt Q8WVM0: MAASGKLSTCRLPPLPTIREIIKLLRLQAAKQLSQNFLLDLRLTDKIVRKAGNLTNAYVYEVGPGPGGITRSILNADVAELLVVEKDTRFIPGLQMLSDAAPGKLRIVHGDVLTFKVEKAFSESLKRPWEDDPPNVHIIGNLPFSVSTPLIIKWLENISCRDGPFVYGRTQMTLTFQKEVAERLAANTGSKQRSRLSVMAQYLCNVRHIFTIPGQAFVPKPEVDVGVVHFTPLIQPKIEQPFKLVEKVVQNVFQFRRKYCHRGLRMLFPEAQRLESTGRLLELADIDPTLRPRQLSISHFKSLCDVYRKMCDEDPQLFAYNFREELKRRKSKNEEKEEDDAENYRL
UniProt Q9Y6I9: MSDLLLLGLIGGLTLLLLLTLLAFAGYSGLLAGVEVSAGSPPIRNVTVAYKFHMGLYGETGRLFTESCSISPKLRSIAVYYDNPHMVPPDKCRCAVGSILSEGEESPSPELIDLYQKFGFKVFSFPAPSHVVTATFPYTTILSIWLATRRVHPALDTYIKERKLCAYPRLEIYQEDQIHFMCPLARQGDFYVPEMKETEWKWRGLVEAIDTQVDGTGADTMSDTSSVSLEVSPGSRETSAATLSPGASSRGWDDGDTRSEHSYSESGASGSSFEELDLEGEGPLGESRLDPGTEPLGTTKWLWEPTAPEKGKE
UniProt Q13428: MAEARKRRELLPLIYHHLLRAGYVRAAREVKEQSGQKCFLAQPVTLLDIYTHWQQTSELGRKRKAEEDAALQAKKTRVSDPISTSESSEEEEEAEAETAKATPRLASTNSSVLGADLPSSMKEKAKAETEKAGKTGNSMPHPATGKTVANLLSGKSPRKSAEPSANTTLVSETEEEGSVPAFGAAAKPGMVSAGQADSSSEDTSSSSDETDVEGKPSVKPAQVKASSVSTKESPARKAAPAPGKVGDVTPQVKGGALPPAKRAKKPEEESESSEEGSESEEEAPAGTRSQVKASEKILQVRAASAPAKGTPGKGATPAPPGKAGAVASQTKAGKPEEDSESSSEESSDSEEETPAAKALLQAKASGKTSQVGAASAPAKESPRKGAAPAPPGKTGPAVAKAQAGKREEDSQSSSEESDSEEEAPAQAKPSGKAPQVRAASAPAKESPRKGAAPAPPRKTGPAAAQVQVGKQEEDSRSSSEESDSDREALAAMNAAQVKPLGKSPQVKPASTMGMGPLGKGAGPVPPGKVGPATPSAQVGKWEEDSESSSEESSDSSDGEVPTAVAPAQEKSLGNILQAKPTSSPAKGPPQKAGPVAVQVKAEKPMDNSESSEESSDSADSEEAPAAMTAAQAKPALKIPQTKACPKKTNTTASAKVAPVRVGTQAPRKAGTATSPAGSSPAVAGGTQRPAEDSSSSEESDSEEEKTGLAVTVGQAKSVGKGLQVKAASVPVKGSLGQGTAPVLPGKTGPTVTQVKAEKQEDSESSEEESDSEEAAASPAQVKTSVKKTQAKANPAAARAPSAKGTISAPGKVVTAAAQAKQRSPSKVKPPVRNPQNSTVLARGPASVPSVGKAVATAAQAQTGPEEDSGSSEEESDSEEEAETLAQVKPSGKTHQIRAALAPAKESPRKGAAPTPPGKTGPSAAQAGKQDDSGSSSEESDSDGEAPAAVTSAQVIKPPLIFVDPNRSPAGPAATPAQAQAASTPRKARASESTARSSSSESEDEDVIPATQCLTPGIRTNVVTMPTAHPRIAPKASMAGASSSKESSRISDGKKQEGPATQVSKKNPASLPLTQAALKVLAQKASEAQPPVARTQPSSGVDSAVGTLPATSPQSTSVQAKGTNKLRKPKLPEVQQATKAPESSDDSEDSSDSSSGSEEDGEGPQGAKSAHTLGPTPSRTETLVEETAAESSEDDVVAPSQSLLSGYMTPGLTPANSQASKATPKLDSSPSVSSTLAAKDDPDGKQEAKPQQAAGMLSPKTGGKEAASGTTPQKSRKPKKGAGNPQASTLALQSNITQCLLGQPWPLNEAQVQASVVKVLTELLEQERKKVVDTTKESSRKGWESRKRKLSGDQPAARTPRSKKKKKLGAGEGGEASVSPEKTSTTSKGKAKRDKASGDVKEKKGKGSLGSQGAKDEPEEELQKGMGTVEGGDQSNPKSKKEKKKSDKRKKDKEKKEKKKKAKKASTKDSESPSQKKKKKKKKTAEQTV
UniProt Q9P0N9: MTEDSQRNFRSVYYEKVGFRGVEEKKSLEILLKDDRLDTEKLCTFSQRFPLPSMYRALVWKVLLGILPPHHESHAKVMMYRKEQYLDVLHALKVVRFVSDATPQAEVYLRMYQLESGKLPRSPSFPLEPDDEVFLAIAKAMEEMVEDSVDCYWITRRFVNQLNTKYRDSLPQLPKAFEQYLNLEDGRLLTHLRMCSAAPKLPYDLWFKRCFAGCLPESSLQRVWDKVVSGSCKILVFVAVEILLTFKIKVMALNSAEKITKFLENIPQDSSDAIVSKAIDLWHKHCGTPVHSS
UniProt P15923: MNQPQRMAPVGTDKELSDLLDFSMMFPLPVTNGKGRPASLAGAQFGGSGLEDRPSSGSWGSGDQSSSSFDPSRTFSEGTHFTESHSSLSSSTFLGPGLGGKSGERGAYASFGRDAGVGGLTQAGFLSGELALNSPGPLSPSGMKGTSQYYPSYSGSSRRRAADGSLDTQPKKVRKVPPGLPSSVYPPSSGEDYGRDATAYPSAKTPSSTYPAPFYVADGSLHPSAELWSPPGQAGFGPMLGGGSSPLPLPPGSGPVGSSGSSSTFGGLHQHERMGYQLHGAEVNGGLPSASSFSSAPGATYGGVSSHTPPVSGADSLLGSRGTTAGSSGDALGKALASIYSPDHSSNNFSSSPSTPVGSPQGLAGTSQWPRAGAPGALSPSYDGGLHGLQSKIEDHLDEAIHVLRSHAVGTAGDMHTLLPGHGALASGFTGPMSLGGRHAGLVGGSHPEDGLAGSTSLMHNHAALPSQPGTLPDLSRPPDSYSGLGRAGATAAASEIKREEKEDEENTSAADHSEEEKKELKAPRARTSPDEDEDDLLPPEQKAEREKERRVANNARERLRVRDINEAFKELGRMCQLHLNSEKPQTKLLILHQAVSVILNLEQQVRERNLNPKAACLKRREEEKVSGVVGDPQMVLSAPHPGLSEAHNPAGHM
UniProt P19532: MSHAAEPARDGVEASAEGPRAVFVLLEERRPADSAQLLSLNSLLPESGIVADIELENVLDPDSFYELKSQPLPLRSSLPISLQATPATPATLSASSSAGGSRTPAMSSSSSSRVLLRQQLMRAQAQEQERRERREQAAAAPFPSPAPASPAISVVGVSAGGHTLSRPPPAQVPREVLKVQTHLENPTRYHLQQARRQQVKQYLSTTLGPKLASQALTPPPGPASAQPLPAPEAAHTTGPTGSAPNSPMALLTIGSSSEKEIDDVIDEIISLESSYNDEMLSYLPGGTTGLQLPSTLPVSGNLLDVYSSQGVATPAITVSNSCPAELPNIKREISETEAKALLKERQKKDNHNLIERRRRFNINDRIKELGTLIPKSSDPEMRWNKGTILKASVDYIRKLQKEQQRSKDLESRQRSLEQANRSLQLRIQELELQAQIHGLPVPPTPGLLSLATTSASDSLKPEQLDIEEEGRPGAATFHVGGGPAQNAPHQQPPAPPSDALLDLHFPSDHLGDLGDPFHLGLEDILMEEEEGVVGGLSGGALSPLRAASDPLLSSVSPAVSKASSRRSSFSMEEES
UniProt O60907: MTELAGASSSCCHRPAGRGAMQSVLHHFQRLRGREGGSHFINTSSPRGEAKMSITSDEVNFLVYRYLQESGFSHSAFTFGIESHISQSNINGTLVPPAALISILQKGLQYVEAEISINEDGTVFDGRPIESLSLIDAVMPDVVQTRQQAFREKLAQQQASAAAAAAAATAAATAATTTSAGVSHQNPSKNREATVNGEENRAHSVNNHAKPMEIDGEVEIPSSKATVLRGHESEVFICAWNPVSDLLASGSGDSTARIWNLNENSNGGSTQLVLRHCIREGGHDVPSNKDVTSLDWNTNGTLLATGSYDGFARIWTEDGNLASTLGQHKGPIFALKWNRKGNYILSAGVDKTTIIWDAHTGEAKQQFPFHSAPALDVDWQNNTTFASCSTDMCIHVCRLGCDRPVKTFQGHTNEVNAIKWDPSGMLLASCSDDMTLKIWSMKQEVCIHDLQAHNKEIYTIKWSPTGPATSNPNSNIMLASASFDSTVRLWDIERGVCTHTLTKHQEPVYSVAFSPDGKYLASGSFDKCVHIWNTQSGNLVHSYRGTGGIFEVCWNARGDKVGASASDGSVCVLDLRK
UniProt P17542, whole entry, looked up: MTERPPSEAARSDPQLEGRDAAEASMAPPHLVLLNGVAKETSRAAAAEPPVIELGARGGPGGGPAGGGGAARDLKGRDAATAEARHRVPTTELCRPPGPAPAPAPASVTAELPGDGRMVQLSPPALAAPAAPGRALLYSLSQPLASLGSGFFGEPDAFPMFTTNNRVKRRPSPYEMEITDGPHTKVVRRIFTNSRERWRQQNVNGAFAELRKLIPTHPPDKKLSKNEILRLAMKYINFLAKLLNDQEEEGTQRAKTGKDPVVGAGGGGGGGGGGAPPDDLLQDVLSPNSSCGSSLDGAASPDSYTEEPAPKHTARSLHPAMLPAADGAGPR
UniProt P42680: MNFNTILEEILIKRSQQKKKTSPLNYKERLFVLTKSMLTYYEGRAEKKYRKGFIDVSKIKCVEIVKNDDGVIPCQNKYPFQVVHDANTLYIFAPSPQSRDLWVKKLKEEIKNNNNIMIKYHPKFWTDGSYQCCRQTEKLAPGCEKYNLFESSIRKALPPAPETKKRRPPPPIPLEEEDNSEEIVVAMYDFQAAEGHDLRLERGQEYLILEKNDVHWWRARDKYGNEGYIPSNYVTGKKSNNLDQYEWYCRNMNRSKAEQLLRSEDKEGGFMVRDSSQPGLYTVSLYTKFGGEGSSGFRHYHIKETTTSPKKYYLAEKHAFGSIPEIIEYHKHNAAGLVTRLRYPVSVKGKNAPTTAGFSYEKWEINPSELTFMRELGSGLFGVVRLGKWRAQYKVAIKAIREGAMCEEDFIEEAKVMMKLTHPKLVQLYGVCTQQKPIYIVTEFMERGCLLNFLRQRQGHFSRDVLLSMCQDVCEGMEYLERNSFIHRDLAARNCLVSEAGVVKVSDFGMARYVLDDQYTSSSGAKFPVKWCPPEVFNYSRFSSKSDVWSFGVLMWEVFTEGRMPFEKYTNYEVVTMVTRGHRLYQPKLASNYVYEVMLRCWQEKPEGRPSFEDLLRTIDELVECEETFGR
UniProt Q86VP1, whole entry, looked up: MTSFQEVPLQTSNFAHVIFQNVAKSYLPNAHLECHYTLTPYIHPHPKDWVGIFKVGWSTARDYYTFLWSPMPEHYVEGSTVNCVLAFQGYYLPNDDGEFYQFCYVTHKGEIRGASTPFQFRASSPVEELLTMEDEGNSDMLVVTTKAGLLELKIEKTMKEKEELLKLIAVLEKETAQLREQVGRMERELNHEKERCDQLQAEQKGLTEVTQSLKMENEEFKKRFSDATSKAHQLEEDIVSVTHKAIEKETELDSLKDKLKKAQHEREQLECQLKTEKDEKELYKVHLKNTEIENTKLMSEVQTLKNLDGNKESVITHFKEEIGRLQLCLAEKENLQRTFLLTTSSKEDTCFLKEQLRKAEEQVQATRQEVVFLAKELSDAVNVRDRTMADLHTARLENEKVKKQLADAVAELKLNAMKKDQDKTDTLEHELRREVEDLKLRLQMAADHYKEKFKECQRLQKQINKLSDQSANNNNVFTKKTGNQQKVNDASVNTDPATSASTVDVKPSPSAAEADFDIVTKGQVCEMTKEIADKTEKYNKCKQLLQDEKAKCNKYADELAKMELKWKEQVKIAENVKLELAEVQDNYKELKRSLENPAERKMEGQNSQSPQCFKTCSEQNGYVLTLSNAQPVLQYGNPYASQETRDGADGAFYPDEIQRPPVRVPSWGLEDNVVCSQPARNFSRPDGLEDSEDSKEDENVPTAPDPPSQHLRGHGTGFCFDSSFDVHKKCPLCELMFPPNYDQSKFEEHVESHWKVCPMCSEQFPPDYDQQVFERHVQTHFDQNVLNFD
UniProt Q8NDF8: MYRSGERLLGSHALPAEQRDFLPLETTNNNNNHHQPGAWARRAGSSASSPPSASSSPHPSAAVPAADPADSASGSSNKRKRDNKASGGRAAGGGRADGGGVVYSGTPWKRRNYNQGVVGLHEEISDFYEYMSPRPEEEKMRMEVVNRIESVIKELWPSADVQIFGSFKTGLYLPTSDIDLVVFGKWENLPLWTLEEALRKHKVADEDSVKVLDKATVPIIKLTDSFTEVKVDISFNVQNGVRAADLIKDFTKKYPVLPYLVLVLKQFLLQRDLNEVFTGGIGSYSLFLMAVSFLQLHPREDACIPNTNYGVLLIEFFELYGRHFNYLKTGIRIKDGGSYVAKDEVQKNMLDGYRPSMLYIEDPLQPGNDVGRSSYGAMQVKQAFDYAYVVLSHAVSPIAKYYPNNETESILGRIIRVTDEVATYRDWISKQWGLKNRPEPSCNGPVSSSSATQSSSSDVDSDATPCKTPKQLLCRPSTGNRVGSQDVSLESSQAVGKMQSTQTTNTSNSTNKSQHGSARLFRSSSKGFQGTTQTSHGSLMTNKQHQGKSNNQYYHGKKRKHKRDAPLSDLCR

[1] = compound: Cc1nc(Nc2n[nH]c3c2CN(C(=O)N[C@H](CN(C)C)c2ccccc2)C3(C)C)c2sccc2n1
Method in brief: as §1

dasatinib = compound: Cc1nc(Nc2ncc(C(=O)Nc3c(C)cccc3Cl)s2)cc(N2CCN(CCO)CC2)n1 [dasatinib]
Method in brief: as §1

[2] = compound: Cc1ncc(-c2ccnc(Nc3ccc(S(C)(=O)=O)cc3)n2)n1C(C)C
Method in brief: as §1

[3] = compound: Cn1cc(-c2ccc3c(c2)CCN3C(=O)Cc2cccc(C(F)(F)F)c2)c2c(N)ncnc21
Method in brief: as §1

tipifarnib = compound: Cn1cncc1[C@@](N)(c1ccc(Cl)cc1)c1ccc2c(c1)c(-c1cccc(Cl)c1)cc(=O)n2C [tipifarnib]
Method in brief: as §1

[4] = compound: NC1(c2ccc(-c3nc4ccn5c(=O)[nH]nc5c4cc3-c3ccccc3)cc2)CCC1
Method in brief: as §1

quisinostat = compound: Cn1cc(CNCC2CCN(c3ncc(C(=O)NO)cn3)CC2)c2ccccc21 [quisinostat]
Method in brief: as §1

[5] = compound: NC(=O)Nc1cc(-c2cccc(F)c2)sc1C(=O)N[C@H]1CCCNC1
Method in brief: as §1

[6] = compound: NC(=O)c1cnc(N[C@@H]2CCCC[C@@H]2N)nc1Nc1cccc(-n2nccn2)c1
Method in brief: as §1

Measured: log2 fold change

TANC2 isoform 2 (UniProt Q9HCD6)
inactive: nilotinib 0.032 | [1] -0.004 | dasatinib -0.236 | [2] -0.059 | [3] 0.011 | tipifarnib -0.1 | [4] 0.206

TBC1D22A (UniProt Q8WUA7)
inactive: nilotinib 0 | [1] 0.014 | dasatinib -0.004 | [2] -0.031 | [3] 0.039 | quisinostat 0.014 | tipifarnib 0.021 | [5] 0.004 | [6] 0.003 | [4] 0.018

TFB1M (UniProt Q8WVM0)
inactive: nilotinib -0.011 | [1] -0.032 | dasatinib -0.024 | [2] 0.02 | [3] 0.004 | quisinostat 0.007 | tipifarnib -0.007 | [5] -0.006 | [6] 0.042 | [4] 0.078

TCEAL9 (UniProt Q9UHQ7)
inactive: nilotinib 0.01 | [1] -0.022 | [2] 0.06 | quisinostat 0.049 | tipifarnib -0.121 | [5] 0.075

TEX264 (UniProt Q9Y6I9)
inactive: nilotinib 0.085 | [1] 0.043 | dasatinib 0.045 | [2] 0.474 | [3] -0.09 | quisinostat 0.068 | tipifarnib -0.103 | [5] 0.181 | [6] -0.067 | [4] -0.017

TCF25 (UniProt Q9BQ70)
inactive: nilotinib -0.066 | [1] -0.122 | dasatinib -0.143 | [2] -0.096 | [3] -0.058 | quisinostat -0.052 | tipifarnib 0.009 | [5] 0.062 | [4] -0.093

TCOF1 isoform 4 (UniProt Q13428)
inactive: nilotinib 0 | [1] -0.014 | dasatinib 0.028 | [2] -0.006 | [3] -0.008 | quisinostat -0.014 | tipifarnib -0.014 | [5] -0.011 | [6] -0.006 | [4] -0.012

TBC1D7 (UniProt Q9P0N9)
inactive: nilotinib 0.043 | [1] -0.12 | dasatinib -0.069 | [2] -0.1 | [3] 0.011 | quisinostat -0.022 | tipifarnib 0.05 | [5] 0.026 | [6] 0.054 | [4] 0.006

TBC1D5 isoform 2 (UniProt Q92609)
inactive: nilotinib 0.011 | [1] 0.002 | dasatinib -0.009 | [2] -0.016 | [3] -0.02 | quisinostat -0.026 | tipifarnib -0.036 | [5] 0.012 | [6] 0.011 | [4] -0.007

TCTN3 (UniProt Q6NUS6)
inactive: nilotinib 0.014 | [1] -0.025 | [2] 0.027 | quisinostat 0.008 | tipifarnib -0.003 | [5] 0

TBC1D13 (UniProt Q9NVG8)
inactive: nilotinib 0.023 | [1] -0.038 | dasatinib -0.021 | [2] -0.005 | [3] 0.009 | quisinostat 0.008 | tipifarnib -0.034 | [5] 0.016 | [6] 0.002 | [4] 0.008

TCF3 (UniProt P15923)
inactive: nilotinib 0.028 | [1] -0.118 | dasatinib -0.018 | [2] -0.057 | [3] -0.139 | quisinostat 0.006 | tipifarnib -0.245 | [5] 0.055 | [6] -0.019 | [4] -0.003

TBRG4 (UniProt Q969Z0)
inactive: nilotinib -0.016 | [1] -0.03 | dasatinib -0.035 | [2] 0.007 | [3] 0.059 | quisinostat 0.004 | tipifarnib -0.006 | [5] 0.038 | [6] 0.022 | [4] 0.019

TBC1D2B (UniProt Q9UPU7)
inactive: nilotinib -0.019 | [1] 0.038 | dasatinib -0.008 | [2] -0.07 | [3] 0.055 | quisinostat 0.007 | tipifarnib -0.087 | [5] 0.007 | [6] -0.021 | [4] 0.006

TFE3 (UniProt P19532)
inactive: nilotinib 0.002 | [1] -0.012 | dasatinib -0.034 | [2] -0.014 | [3] 0.02 | quisinostat 0.092 | tipifarnib -0.028 | [5] 0.051 | [6] -0.029 | [4] 0.004

Taken from the results shown (2 entries):
TCF3 (UniProt P15923)
inactive: nilotinib 0.028 | [1] -0.118 | dasatinib -0.018 | [2] -0.057 | [3] -0.139 | quisinostat 0.006 | tipifarnib -0.245 | [5] 0.055 | [6] -0.019 | [4] -0.003

TBRG4 (UniProt Q969Z0)
inactive: nilotinib -0.016 | [1] -0.03 | dasatinib -0.035 | [2] 0.007 | [3] 0.059 | quisinostat 0.004 | tipifarnib -0.006 | [5] 0.038 | [6] 0.022 | [4] 0.019

Additional results.

TFAP4 (UniProt Q01664)
inactive: nilotinib 0.18 | [1] 0.155 | [2] 0 | quisinostat 0.006 | tipifarnib -0.066 | [5] -0.036 | [6] -0.218 | [4] -0.001

TBL1X (UniProt O60907)
inactive: nilotinib 0.012 | [1] 0.026 | dasatinib -0.006 | [2] -0.012 | [3] 0.036 | quisinostat 0.004 | tipifarnib 0.013 | [5] -0.003 | [6] 0.015 | [4] 0.056

TBCK (UniProt Q8TEA7)
inactive: nilotinib 0.115 | [1] -0.14 | dasatinib 0.016 | [2] -0.008 | [3] -0.03 | quisinostat -0.066 | tipifarnib 0.082 | [5] 0.062 | [6] 0.074 | [4] 0.023

TAL1 (UniProt P17542)
inactive: nilotinib 0.024 | [1] -0.044 | dasatinib 0.034 | [2] -0.052 | [3] 0.021 | quisinostat -0.034 | tipifarnib -0.059 | [5] 0.037 | [6] -0.054 | [4] -0.024

TBK1 (UniProt Q9UHD2)
active: [1] 0.618
inactive: nilotinib -0.003 | dasatinib 0.029 | [2] 0.125 | [3] 0.251 | quisinostat -0.097 | tipifarnib -0.026 | [5] 0.209 | [6] 0.032 | [4] -0.074

TDP2 isoform 2 (UniProt O95551)
inactive: nilotinib -0.029 | [1] 0.014 | dasatinib -0.013 | [2] 0.006 | [3] 0.054 | quisinostat -0.007 | tipifarnib 0.012 | [5] 0 | [6] 0.011 | [4] -0.038

TBCD, A0A0J9YWI5
inactive: quisinostat 0.142 | [5] 0

TENM4 (UniProt Q6N022)
inactive: quisinostat -0.13 | [5] 0.033 | [6] -0.081

TAOK2 isoform 2 (UniProt Q9UL54)
inactive: nilotinib 0.109 | [1] 0.013 | [2] -0.01 | tipifarnib 0.031

TEAD1 (UniProt P28347)
inactive: dasatinib -0.23 | [3] 0.242 | [4] -0.393

TEAD2 isoform 4 (UniProt Q15562)
inactive: dasatinib 0.038 | [3] -0.196 | [4] -0.087

TEC (UniProt P42680)
inactive: nilotinib -0.047 | [1] 0.099 | [2] 0.019 | tipifarnib 0.116 | [6] -0.039

TASOR (UniProt Q9UK61)
inactive: dasatinib 0 | [3] -0.006 | quisinostat -0.013 | [5] 0.017 | [4] -0.042

TBC1D20 isoform 3 (UniProt Q96BZ9)
inactive: dasatinib 0.027 | [3] -0.053 | quisinostat -0.021 | [5] 0.067 | [6] -0.072 | [4] -0.006

TAZ (UniProt Q16635)
inactive: quisinostat 0.105 | [5] 0.157 | [6] 0.023 | [4] -0.146

TAX1BP1 isoform 2 (UniProt Q86VP1)
inactive: nilotinib 0.269 | [1] 0.198 | [2] 0.226 | tipifarnib -0.18 | [4] -0.097

TENT4B isoform 5 (UniProt Q8NDF8)
inactive: nilotinib 0.181 | [1] -0.203 | [2] 0.115 | quisinostat -0.034 | tipifarnib 0.206 | [5] 0.093 | [4] -0.069

TAF9B (UniProt Q9HBM6)
inactive: dasatinib 0.002 | [3] -0.023 | quisinostat 0.004 | [5] 0.024 | [6] 0.143 | [4] -0.02

TCEAL1 isoform 2 (UniProt Q15170)
inactive: [6] -0.015

TBCA (UniProt E5RHG6)
inactive: quisinostat 0.064 | [5] 0.032 | [4] -0.062

TCF20 (UniProt Q9UGU0)
inactive: dasatinib 0.001 | [3] -0.057 | quisinostat 0.193 | [5] -0.006 | [6] 0.11 | [4] 0.068

TCP11L2 (UniProt Q8N4U5)
inactive: [4] 0.066

TBCCD1 (UniProt Q9NVR7)
inactive: [4] -0.233

TCF3 isoform 2 (UniProt P15923)
inactive: quisinostat -0.05 | [5] -0.005 | [4] -0.068

TAX1BP3 (UniProt O14907)
inactive: dasatinib 0.066 | [3] 0.108 | [6] 0.151 | [4] 0.039

TEAD3 (UniProt Q99594)
inactive: dasatinib -0.157 | [3] 0.02 | quisinostat -0.04 | [5] 0.008 | [4] 0.149

TET2 (UniProt Q6N021)
inactive: dasatinib -0.037 | [3] -0.041 | quisinostat -0.305 | [5] -0.116 | [4] -0.04

TESMIN (UniProt Q9Y4I5)
inactive: dasatinib -0.269 | [3] 0.121 | quisinostat -0.086 | [5] 0.026 | [4] -0.089

TAPBP isoform 3 (UniProt O15533)
inactive: dasatinib 0.186 | [3] -0.048 | quisinostat 0.045 | [5] 0.042 | [4] -0.132

From the supplement of paper PMC10849652
